{"sequences": {"note": "By UniProt entry, the sequences of proteins in these tests, tags left out. Residues count along the entry.", "UniProt P07589, residues 33-2478": "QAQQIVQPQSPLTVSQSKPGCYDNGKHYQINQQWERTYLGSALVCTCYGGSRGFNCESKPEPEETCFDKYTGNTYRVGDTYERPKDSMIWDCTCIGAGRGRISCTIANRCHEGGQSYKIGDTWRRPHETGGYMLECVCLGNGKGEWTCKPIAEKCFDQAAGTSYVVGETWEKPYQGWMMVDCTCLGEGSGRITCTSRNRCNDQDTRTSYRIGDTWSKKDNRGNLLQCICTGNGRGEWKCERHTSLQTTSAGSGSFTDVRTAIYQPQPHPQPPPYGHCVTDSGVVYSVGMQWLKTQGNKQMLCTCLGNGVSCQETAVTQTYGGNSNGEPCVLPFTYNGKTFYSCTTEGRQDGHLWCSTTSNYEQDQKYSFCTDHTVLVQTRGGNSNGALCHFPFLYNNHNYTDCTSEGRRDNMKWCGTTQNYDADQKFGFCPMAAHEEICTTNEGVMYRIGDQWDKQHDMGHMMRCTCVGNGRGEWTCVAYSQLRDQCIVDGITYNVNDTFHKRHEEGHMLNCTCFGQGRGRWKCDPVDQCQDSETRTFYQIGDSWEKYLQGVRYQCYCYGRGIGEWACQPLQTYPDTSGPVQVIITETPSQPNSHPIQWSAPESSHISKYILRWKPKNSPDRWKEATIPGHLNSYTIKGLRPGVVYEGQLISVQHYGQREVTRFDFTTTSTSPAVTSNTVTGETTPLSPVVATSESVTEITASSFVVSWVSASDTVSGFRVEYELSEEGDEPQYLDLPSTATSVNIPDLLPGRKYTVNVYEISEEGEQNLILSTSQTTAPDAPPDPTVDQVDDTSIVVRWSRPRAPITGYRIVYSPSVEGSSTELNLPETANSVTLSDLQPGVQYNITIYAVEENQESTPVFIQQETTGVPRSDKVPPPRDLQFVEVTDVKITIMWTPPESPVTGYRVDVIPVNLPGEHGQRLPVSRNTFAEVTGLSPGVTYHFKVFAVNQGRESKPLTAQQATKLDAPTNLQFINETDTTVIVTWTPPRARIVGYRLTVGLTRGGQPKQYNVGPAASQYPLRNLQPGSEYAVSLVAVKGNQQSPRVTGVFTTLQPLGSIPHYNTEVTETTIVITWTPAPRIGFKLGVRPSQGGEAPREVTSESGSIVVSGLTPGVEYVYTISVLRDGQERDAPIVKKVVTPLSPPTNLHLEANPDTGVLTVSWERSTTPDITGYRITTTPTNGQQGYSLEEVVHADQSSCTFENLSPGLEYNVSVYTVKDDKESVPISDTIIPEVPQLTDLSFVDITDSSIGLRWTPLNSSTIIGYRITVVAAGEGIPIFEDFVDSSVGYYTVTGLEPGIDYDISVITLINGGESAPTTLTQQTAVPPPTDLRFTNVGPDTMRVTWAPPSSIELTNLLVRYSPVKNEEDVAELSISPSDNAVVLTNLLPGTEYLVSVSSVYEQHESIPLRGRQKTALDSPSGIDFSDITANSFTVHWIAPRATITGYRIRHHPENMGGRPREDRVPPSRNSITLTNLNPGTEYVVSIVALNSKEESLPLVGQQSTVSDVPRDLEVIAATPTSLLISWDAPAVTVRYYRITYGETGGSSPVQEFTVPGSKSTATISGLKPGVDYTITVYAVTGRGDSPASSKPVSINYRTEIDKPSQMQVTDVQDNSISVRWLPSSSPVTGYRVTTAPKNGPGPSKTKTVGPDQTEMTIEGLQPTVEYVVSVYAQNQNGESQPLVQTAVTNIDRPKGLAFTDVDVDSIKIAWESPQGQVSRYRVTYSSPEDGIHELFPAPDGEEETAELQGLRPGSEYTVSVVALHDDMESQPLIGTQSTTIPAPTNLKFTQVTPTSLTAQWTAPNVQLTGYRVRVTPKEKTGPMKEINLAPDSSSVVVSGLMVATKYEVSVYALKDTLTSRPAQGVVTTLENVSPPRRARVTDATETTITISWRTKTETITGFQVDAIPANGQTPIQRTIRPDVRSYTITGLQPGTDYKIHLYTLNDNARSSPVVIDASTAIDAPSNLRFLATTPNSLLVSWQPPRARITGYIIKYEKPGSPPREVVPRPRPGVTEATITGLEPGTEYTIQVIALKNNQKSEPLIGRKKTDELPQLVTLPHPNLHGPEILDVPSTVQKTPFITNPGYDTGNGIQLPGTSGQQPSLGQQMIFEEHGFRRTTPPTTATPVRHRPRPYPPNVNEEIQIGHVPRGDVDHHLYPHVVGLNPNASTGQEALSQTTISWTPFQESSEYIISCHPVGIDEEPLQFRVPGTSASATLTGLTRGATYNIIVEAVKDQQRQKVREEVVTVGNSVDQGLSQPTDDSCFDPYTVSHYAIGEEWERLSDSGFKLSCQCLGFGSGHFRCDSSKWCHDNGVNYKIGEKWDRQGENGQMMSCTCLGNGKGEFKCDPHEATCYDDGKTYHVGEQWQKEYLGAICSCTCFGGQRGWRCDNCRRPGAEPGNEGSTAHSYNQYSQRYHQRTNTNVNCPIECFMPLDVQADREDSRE"}, "source": "paper PMC5931992", "key": {"fibronectin [1]": {"biological_target": "fibronectin (UniProt P07589)", "assay": "SEC-MALS; fibronectin, 0.45 mg on Superdex 200 Increase; 20 mM Tris-HCl pH 8, 100 mM NaCl; 25 °C; self-association; both purified"}, "fibronectin [2]": {"biological_target": "fibronectin (UniProt P07589)", "assay": "IEX-MALS (anion exchange, AIEX-MALS); fibronectin, 20 mL of 0.05 mg/mL (1 mg) on Mono-Q; 20 mM Tris-HCl pH 8, 50 mM NaCl; 30CV gradient of 15-45% of buffer with 1 M NaCl; 25 °C; self-association; both purified"}}, "note": "These are yes or no findings as the source states them, for the method shown. Some results given as binding are weak or reduced against the parent protein; the word gives no strength."}
{"substance": "fibronectin (from UniProt P07589 33-2478)", "values": [{"measurement": "binding", "setting": "fibronectin [1]", "result": "binds"}, {"measurement": "binding", "setting": "fibronectin [2]", "result": "binds"}]}
